Data from the supplement of paper PMC10849652.
The list shows a part of the results.

By UniProt entry, the sequences of proteins in these tests, tags left out. Where a name states a change or a piece, a line headed by the entry shows the natural chain unless it says otherwise.
UniProt Q969X1: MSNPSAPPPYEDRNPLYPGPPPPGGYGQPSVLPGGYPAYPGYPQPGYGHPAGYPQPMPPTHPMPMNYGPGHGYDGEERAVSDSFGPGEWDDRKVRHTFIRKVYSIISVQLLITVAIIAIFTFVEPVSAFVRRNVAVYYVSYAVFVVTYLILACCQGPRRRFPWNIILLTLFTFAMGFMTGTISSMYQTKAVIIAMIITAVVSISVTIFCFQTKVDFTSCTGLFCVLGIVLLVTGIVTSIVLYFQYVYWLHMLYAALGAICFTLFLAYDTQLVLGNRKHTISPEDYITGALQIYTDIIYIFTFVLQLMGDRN
UniProt O94876, whole entry, looked up: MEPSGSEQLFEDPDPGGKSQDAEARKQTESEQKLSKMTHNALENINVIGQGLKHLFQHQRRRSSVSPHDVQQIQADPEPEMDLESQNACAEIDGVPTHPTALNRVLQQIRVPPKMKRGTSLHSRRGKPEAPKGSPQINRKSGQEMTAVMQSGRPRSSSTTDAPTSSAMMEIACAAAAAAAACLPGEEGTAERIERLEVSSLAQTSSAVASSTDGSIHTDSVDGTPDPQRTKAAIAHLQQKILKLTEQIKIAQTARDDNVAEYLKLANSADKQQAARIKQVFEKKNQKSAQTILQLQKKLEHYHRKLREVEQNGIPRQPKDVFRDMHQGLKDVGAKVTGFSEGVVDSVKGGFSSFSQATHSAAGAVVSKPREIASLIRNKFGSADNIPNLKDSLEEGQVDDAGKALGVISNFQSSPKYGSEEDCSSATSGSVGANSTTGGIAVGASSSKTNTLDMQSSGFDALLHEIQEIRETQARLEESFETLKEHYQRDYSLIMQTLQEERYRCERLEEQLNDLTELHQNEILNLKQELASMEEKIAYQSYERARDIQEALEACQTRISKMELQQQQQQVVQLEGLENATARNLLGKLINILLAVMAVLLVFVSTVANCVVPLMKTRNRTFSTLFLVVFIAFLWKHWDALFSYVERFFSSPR
UniProt Q08117: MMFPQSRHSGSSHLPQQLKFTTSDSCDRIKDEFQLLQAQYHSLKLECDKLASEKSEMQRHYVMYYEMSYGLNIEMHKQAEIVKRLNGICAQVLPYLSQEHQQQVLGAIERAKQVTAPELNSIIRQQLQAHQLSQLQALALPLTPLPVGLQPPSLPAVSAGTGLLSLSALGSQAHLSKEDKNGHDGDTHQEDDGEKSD
UniProt Q6UWJ1: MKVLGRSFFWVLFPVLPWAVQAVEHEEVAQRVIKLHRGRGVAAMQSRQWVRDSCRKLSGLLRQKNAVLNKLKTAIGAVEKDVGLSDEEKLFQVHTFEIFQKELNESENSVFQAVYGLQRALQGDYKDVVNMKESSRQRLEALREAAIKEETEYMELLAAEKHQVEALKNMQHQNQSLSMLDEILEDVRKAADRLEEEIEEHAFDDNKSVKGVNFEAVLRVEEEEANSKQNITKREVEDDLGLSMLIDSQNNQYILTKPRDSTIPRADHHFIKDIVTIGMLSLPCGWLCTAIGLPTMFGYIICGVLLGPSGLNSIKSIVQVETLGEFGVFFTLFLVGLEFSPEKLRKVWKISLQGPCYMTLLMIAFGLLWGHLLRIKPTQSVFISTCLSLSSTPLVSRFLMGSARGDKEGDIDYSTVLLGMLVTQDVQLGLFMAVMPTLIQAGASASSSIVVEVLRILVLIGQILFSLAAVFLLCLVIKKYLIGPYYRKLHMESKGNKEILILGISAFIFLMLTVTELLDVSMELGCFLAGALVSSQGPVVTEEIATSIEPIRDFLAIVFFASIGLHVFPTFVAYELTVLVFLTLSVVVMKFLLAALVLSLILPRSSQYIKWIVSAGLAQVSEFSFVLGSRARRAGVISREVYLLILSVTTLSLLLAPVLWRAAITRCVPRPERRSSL
UniProt Q8NCS4: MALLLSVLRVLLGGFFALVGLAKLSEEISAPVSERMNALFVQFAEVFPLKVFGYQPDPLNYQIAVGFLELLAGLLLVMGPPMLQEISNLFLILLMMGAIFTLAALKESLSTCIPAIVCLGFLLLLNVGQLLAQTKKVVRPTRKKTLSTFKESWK
UniProt Q9BVK8: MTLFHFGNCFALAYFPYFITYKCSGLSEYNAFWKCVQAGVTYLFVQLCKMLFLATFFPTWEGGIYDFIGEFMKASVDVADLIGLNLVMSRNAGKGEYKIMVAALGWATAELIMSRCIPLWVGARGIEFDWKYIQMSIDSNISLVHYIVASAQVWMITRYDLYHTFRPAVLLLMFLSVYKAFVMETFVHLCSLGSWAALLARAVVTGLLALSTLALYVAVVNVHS
UniProt Q9BVT8: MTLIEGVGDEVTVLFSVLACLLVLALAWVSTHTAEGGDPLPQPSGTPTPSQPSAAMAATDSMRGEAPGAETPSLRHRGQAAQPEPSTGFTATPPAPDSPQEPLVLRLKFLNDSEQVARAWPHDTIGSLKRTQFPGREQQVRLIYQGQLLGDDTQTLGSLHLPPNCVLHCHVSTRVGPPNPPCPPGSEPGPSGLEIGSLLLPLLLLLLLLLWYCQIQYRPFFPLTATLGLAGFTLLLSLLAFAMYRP
UniProt Q96B96: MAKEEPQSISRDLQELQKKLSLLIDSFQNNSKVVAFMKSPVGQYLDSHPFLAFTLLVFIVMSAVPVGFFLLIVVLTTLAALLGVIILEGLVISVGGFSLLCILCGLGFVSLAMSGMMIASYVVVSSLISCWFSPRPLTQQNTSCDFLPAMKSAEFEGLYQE
UniProt Q9ULS5: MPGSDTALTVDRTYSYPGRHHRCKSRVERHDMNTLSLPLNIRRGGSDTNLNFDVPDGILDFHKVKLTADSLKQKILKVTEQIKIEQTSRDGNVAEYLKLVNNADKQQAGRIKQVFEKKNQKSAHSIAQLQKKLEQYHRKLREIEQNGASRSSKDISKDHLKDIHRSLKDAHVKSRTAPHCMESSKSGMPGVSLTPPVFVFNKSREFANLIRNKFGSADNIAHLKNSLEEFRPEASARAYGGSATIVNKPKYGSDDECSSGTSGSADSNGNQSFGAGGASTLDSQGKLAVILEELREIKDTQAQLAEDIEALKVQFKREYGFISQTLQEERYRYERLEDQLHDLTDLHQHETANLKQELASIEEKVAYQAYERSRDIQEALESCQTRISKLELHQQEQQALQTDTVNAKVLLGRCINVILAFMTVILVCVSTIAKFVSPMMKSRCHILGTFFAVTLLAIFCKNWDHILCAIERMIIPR
UniProt Q9NWH2: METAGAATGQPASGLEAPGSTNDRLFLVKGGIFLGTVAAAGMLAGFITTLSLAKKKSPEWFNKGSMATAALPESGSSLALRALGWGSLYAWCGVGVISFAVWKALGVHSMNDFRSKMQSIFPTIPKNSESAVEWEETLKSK
UniProt Q9H6X4: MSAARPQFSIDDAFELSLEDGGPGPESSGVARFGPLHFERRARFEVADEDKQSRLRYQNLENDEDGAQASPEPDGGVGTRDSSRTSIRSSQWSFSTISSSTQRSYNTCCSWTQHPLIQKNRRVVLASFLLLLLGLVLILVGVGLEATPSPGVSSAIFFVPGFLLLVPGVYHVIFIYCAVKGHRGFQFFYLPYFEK
UniProt Q9HCN3: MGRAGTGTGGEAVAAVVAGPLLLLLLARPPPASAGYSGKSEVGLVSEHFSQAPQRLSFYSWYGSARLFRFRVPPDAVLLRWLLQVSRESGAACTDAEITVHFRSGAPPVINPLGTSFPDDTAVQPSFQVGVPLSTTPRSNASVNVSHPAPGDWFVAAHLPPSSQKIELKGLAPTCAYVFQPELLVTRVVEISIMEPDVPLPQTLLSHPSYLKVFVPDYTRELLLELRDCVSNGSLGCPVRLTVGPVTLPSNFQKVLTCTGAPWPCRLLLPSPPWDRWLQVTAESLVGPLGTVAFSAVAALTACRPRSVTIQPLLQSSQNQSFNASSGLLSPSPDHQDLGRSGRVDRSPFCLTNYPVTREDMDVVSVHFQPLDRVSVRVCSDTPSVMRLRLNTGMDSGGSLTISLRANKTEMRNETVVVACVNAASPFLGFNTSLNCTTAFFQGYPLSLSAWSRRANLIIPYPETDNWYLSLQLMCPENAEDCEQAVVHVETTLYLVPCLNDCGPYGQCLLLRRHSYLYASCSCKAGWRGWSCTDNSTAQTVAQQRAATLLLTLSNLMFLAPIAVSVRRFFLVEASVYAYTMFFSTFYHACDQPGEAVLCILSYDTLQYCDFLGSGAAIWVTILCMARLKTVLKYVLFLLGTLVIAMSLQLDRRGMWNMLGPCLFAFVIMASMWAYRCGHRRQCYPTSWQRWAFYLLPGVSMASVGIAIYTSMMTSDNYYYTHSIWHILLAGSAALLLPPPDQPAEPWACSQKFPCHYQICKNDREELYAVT
UniProt Q96DC7: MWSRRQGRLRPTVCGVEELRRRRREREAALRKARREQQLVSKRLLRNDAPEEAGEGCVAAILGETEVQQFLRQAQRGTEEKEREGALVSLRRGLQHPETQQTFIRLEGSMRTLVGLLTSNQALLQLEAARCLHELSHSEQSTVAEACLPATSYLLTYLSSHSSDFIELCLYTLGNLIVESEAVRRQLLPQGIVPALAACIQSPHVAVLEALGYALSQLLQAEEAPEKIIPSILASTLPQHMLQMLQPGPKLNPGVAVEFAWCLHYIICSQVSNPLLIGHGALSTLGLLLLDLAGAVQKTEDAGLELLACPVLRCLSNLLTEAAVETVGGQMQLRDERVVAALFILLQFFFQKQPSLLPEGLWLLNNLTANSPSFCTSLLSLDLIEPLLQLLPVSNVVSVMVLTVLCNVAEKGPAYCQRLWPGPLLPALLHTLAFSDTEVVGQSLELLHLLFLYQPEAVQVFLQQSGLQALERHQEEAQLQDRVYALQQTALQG
UniProt Q92545: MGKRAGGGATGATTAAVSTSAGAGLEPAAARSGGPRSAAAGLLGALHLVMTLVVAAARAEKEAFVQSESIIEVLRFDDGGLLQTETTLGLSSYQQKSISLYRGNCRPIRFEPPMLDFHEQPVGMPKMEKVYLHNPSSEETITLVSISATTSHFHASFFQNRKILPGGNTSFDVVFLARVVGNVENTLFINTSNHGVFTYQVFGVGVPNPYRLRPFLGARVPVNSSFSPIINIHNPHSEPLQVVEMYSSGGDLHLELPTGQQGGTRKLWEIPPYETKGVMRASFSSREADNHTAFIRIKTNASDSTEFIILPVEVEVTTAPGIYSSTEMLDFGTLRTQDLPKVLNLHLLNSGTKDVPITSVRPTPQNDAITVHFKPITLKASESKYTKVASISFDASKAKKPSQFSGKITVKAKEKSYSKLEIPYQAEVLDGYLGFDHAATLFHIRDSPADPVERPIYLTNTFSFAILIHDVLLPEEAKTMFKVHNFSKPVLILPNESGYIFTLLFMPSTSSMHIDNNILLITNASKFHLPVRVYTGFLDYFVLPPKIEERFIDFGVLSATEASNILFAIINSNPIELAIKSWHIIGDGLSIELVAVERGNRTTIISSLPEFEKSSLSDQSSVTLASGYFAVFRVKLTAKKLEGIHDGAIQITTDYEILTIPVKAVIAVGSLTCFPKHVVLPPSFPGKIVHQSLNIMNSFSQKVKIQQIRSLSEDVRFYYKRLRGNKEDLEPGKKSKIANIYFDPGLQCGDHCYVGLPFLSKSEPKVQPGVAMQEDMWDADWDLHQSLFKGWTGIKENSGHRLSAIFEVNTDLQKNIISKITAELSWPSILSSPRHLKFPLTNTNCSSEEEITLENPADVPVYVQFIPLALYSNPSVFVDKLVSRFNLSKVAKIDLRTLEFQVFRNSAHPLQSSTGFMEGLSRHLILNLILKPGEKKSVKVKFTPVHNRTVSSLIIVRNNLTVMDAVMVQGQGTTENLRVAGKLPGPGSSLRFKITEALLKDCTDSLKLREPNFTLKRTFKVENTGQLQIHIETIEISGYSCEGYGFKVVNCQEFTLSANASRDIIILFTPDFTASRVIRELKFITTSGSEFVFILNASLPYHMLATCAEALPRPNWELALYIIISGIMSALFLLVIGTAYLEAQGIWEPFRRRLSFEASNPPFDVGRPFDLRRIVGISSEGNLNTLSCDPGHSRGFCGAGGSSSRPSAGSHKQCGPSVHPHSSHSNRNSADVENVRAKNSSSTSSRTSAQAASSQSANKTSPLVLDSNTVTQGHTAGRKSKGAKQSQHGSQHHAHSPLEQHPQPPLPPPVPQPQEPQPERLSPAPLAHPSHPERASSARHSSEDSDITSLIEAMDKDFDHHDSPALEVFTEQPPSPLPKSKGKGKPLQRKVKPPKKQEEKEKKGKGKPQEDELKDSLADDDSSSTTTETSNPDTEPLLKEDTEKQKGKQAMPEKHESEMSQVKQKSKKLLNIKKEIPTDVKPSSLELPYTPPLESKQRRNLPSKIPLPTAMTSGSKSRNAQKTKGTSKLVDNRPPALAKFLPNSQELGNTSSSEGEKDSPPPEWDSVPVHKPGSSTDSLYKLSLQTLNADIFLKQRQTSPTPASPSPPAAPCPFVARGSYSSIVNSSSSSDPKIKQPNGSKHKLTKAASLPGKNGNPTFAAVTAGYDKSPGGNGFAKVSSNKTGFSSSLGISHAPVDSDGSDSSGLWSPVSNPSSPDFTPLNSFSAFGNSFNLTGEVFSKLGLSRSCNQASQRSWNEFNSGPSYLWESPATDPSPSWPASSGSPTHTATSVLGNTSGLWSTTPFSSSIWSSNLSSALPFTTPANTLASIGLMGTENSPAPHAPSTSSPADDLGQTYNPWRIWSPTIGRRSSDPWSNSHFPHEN

What follows are targets tested with COc1cccc2cc(-c3nc([C@H]4CC[C@H](C(=O)O)CC4)n4ncnc(N)c34)[nH]c12 (assay: log2 fold change, soluble protein after heating vs DMSO (PISA); higher = thermal stabilisation; K562 cells, 10 uM, 30 min; active = over 0.2 and 3.5 SD of the protein, either way, in both replicates (recomputed)).
How it was run: (§1)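 For each measurement, 10 μM compound was applied for 30 min to K562 cells at 2×10^6 cells/mL. Aliquots were heated for 3 min across 48°C-58°C, pooled, and extracted in PBS with 0.5% NP-40 at 4°C; the supernatant after 21,000xg for 90 min was soluble protein. This was quantified by TMTpro 16plex LC-MS/MS with channel sums equalised, and thermal stability was reported relative to control samples from duplicates, on a log2 fold-change scale.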

Target | log2 fold change
TMBIM1 (UniProt Q969X1) | inactive: 0.088
TMEM201 (UniProt Q5SNT2) | inactive: 0.058
TMCC1 (UniProt O94876) | inactive: 0.031
TMEM237 isoform 3 (UniProt Q96Q45) | inactive: -0.334
TMEM98 (UniProt Q9Y2Y6) | inactive: 0.157
TMEM184B (UniProt Q9Y519) | inactive: -0.004
TLE5 isoform 2 (UniProt Q08117) | inactive: 0.077
TMCO3 (UniProt Q6UWJ1) | inactive: -0.105
TMEM35B (UniProt Q8NCS4) | inactive: 0.089
TMEM147 (UniProt Q9BVK8) | inactive: -0.016
TMUB1 (UniProt Q9BVT8) | inactive: -0.02
TMEM268 isoform 3 (UniProt Q5VZI3) | inactive: 0.001
TMEM159 isoform 2 (UniProt Q96B96) | inactive: -0.214
TMCC3 (UniProt Q9ULS5) | inactive: 0.169
TMEM242 (UniProt Q9NWH2) | inactive: 0.121
TLR9 isoform 4 (UniProt Q9NR96) | inactive: 0.007
TMEM123 (UniProt Q8N131) | inactive: -0.069
TMEM134 (UniProt Q9H6X4) | inactive: 0.068
TMPO (UniProt G5E972) | inactive: -0.144
TMEM8A (UniProt Q9HCN3) | inactive: 0.085
TMEM260 (UniProt Q9NX78) | inactive: 0.118

The targets below were run with CS(=O)(=O)CCNCc1ccc(-c2ccc3ncnc(Nc4ccc(OCc5cccc(F)c5)c(Cl)c4)c3c2)o1 [lapatinib] in the same assay as above.
How it was run: as §1

Target | log2 fold change
TMBIM1 (UniProt Q969X1) | inactive: 0.172
TNFRSF1A (UniProt P19438) | inactive: -0.088
TMEM129 | inactive: 0.085
TMEM98 (UniProt Q9Y2Y6) | inactive: 0.107
TMEM184B (UniProt Q9Y519) | inactive: 0.099
TLE5 isoform 2 (UniProt Q08117) | inactive: 0.113
TMEM219 (UniProt Q86XT9) | inactive: 0.058
TMEM147 (UniProt Q9BVK8) | inactive: -0.112
TMUB1 (UniProt Q9BVT8) | inactive: -0.133
TMEM268 isoform 3 (UniProt Q5VZI3) | inactive: 0.09
TMEM106C (UniProt Q9BVX2) | inactive: 0.121
TMEM242 (UniProt Q9NWH2) | inactive: 0.041
TMEM123 (UniProt Q8N131) | inactive: -0.116
TM7SF2 (UniProt O76062) | inactive: 0
TMEM175 (UniProt Q9BSA9) | inactive: -0.065
TLR4 (UniProt O00206) | inactive: -0.25
TMEM8A (UniProt Q9HCN3) | inactive: 0.065

What follows are targets tested with CS(=O)(=O)N1CCN(Cc2cc3nc(-c4cccc5[nH]ncc45)nc(N4CCOCC4)c3s2)CC1 [pictilisib] in the same assay as above.
How it was run: as §1

Target | log2 fold change
TMBIM1 (UniProt Q969X1) | inactive: 0.138
TNFRSF1A (UniProt P19438) | inactive: 0.189
TMEM201 (UniProt Q5SNT2) | inactive: 0.128
TMCO6 isoform 2 (UniProt Q96DC7) | inactive: -0.082
TMCC1 (UniProt O94876) | inactive: 0.083
TMEM237 isoform 3 (UniProt Q96Q45) | inactive: -0.333
TMEM131 (UniProt Q92545) | inactive: 0.007
TLE5 isoform 2 (UniProt Q08117) | inactive: -0.077
TMEM219 (UniProt Q86XT9) | inactive: -0.277
TMCO3 (UniProt Q6UWJ1) | inactive: 0.163
TMEM35B (UniProt Q8NCS4) | inactive: 0.045
TMUB1 (UniProt Q9BVT8) | inactive: 0.015
TMEM268 isoform 3 (UniProt Q5VZI3) | inactive: -0.088
TMEM159 isoform 2 (UniProt Q96B96) | inactive: 0.167
TMEM242 (UniProt Q9NWH2) | inactive: -0.032
TMEM134 (UniProt Q9H6X4) | inactive: -0.06
TMPO (UniProt G5E972) | inactive: 0.338
TLR4 (UniProt O00206) | inactive: 0.263
TMEM8A (UniProt Q9HCN3) | inactive: 0.121
